# Measured values published in PubChem BioAssay AID595 (National Center for Advancing Translational Sciences (NCATS), 2007).
# Hit rate of the full screen: of about 71,000 compounds, about 310 (0.44%) were called active. This list was built around the results that the source calls inconclusive (neither active nor inactive); the mix of calls is not that of the screen. Calls come from the whole dose curve; as a rule, active = well fitted curve in either direction with a large enough effect; inconclusive = small, poorly fitted or top-dose-only effect, or another doubt; inactive = flat fitted curve, though single readings scatter. A potency beside an inconclusive call is a rough fit, not a confirmed value.
# Tested on: Hsp90 C-terminal peptide / TPR2A (Hop) interaction, human
# Experiment: qHTS Assay for Disrupters of an Hsp90 Co-Chaperone Interaction
# Conditions: AlphaScreen TPR2A-His6 binding biotin-Hsp90 C-terminal peptide; activity change, negative = inhibition: at 57 µM (top of the series) unless noted
# % is set by controls: 0 for no effect and ±100 for the full control effect; potency is the fitted concentration of half-maximal effect.
SMILES,"activity change, negative = inhibition",Potency
Cc1noc(C)c1-c1nc(N2CCOCC2)c2ccccc2n1,inconclusive: 99%,
CCOC(=O)c1cnn(-c2nc(CC)nc3sc4c(c23)CCC4)c1N,inconclusive: 47.9%,
Cc1ccc(C2C(C#N)=C(N)Oc3n[nH]c(C)c32)cc1 (stereo not given),inactive: -0.299%,
O=c1c(-c2cccs2)nc2cnc(N3CCOCC3)nc2n1-c1ccccc1,,active: 3.16 µM [activator]
CCc1cc(Br)ccc1NC(=O)C1CCCO1 (stereo not given),inconclusive: 44.1%,
Cn1nc(C(=O)Nc2cccnc2)c2ccccc2c1=O,inactive: -4.02%,
O=C1CC(Sc2nnnn2C2CCCCC2)C(=O)N1c1ccccc1 (stereo not given),inactive: -3.34%,
COc1cc(OC)c(C2CC(=O)N3CN(c4ccccc4C)CSC3=C2C#N)cc1OC (stereo not given),inactive: -18.9%,
COc1ccccc1C1N(c2cc(Cl)ccc2OC)C(=O)C2CCCN21 (stereo not given),inconclusive: 52.4%,
N#Cc1cccc(-c2nc(NCCN3CCOCC3)c3ccccc3n2)c1,inactive: -3.87%,
CCOC(=O)c1cnc2c(C)cccc2c1NCc1ccco1,,"inconclusive: 25.1 µM [activator, single point]"
COC(=O)c1cc(-c2ccc3c(c2)OCO3)nc2ccccc12,,active: 25.1 µM [activator]
O=C(Nc1ccc(C(=O)Nc2ccc(C(=O)Nc3ccc(S(=O)(=O)O)c4cc(S(=O)(=O)O)cc(S(=O)(=O)O)c34)cc2)cc1)Nc1ccc(C(=O)Nc2ccc(C(=O)Nc3ccc(S(=O)(=O)O)c4cc(S(=O)(=O)O)cc(S(=O)(=O)O)c34)cc2)cc1,,"inconclusive: 39.8 µM [inhibitor, single point]"
O=C(CC(=O)c1cc(Cl)ccc1O)c1ccccc1,inactive: -7.95%,
Cn1c(SCC(=O)N2CCCc3ccccc32)nnc1-c1ccccc1,inconclusive: 54%,
N#C/C(C(N)=O)=c1/ccc2c(c1)N1C3=C(CCCC3)CC3CCCCC31N=2 (stereo not given),,"inconclusive: 15.8 µM [inhibitor, partial curve]"
Cc1nn(-c2ccccc2)c2c1C(c1cccnc1)N1C=C(S(=O)(=O)N3CCCCC3)C=CC1=N2 (stereo not given),,"inconclusive: 15.8 µM [inhibitor, partial curve]"
N=c1c(C(=O)NCc2ccco2)cc2c(=O)n3ccccc3nc2n1Cc1ccc(Cl)cc1,inactive: 0.123%,
COc1ccccc1C1SCCN1S(=O)(=O)c1cccc(C(F)(F)F)c1 (stereo not given),,"inconclusive: 31.6 µM [activator, single point]"
COc1ccc(Cc2nn3c(-c4ccccc4Br)nnc3s2)cc1,inactive: -0.423%,
O=C(Cn1cc2c(n1)CCCC2)NCc1ccccn1,,"inconclusive: 15.8 µM [inhibitor, partial curve]"
CS(=O)(=O)N1CCC2(CC1)CN(C(=O)Nc1cccc(F)c1)C2,,"inconclusive: 7.94 µM [inhibitor, partial curve]"

SMILES,"activity change, negative = inhibition",Potency
CCS(=O)(=O)NCCc1csc(-c2ccccc2)n1,inconclusive: 53.6%,
O=C1c2ccccc2S(=O)(=O)N1CC(O)Cn1ccc2ccccc21 (stereo not given),inactive: 2.62%,
CS(=O)(=O)NCCC1=CCCCC1,inactive: -3.33%,
Cc1occc1C(=O)NC(C)CCc1ccccc1 (stereo not given),inconclusive: 53.6% [at 11 µM],
Cc1[nH]nc2c1C1(CCC3(CC1)OCCO3)C(C#N)=C(N)O2,inactive: -5.72%,
COc1ccc(N2CCN(Cc3nc(N)nc(Nc4ccc(C)c(Cl)c4)n3)CC2)cc1,,"inconclusive: 25.1 µM [inhibitor, partial curve]"
OCCN1CCN(C(c2cccs2)c2ccc3cccnc3c2O)CC1 (stereo not given),,active: 31.6 µM
Cc1cccc(NC(=O)CSc2nnc(CSc3nc(C)cc(C)n3)n2Cc2ccco2)c1,inconclusive: 32.6%,
CCOC(=O)CSc1nc2cc(C)ccc2cc1C#N,,"inconclusive: 25.1 µM [activator, single point]"
CSc1nsc(SCc2ccc(F)cc2)n1,,"inconclusive: 31.6 µM [activator, single point]"
COc1ccc(CN(C(=O)c2ccco2)c2ccc(Br)cc2)cc1OC,inconclusive: 26.4%,
N#CCCN1CCN(C(=S)c2ccc(-c3cccc(Cl)c3)o2)CC1,,"inconclusive: 20 µM [inhibitor, partial curve]"
CCOc1cc(-c2cc(-c3ccc(N)cc3)nc(N)c2C#N)ccc1O,inconclusive: 33.8%,
CC(C)Cn1c(N)c(C(=O)CSc2ccc3c(c2)OCCO3)c(=O)n(C)c1=O,inconclusive: 45.1%,
Cc1cc(S(=O)(=O)N2CCN(c3ccc(F)cc3)CC2)c(C)s1,,"inconclusive: 25.1 µM [activator, single point]"
COc1ccccc1C(=O)NCCn1cc(SCC(=O)Nc2nnc(C)s2)c2ccccc21,inconclusive: 22.4%,
COc1ncc2nc(-c3cn(C)c4ccccc34)c(=O)n(CCC#N)c2n1,inactive: -3.7%,
CCOC(=O)c1[nH]cnc1C(=O)O,,active: 25.1 µM
Clc1cccc(Cl)c1COc1ccccn1,inconclusive: 64.4%,
CCn1c(SCC(=O)N2CCCc3ccccc32)nc2cccnc21,inactive: -3.9%,
COc1ccc(-c2csc(N3CCC(C(N)=O)(N4CCCCC4)CC3)n2)cc1,inactive: -10.9%,
COc1ccc(-c2nc(SC)n(S(=O)(=O)c3ccccc3)n2)cc1,inactive: 6.25%,

SMILES,"activity change, negative = inhibition",Potency
Cn1c(=O)c(-c2cccs2)nc2cnc(Oc3ccccc3)nc21,,"inconclusive: 20 µM [activator, partial curve]"
CCCCNC(=O)c1cc2c(=O)n3cccc(C)c3nc2n(Cc2ccccc2)c1=N,inactive: -3.84%,
Cc1occc1-c1nnc(SCC(=O)c2ccc(F)cc2)n1Cc1ccco1,inactive: 0.315%,
CCOCCc1nnc(NC(=O)c2cc(OC)c(OC)c(OC)c2)s1,inactive: -1.16%,
COc1ccc(-c2noc(-c3ccccc3-c3ccccc3)n2)cc1OC,,"inconclusive: 20 µM [activator, single point]"
Nc1nnc(C(=O)c2ccccc2N)s1,inconclusive: 22.4%,
N#Cc1c(N)n(CCCN2CCOCC2)c2nc3ccccc3nc12,inconclusive: 47.3%,
Cc1ccc(/C(O)=C2/C(=O)C(=O)N(CCCn3ccnc3)C2c2cccnc2)cc1 (stereo not given),,"inconclusive: 25.1 µM [inhibitor, partial curve]"
CCOc1ccc(C(=O)CCN2CCCCC2)cc1,inconclusive: 72.3%,
CCOc1ncccc1C(=O)OCC(=O)c1cc(C)n(Cc2ccco2)c1C,inactive: -4.26%,
CC(C)[C@H](CO)Nc1nc(Nc2cccc(Cl)c2)c2ncn(C(C)C)c2n1,inconclusive: 57.7%,
Cc1cc(C)c(C#N)c(N2CCSCC2)n1,inconclusive: 69.5%,
COC(=O)c1ccc(CSc2nc(C)nc3sc(C)c(C)c23)o1,inactive: -1.35%,
Cc1noc(C)c1S(=O)(=O)Nc1ccc(C(=O)O)cc1,inconclusive: 29.5%,
COC(=O)c1ccc(CSc2nc(-c3ccccc3)cs2)o1,,"inconclusive: 39.8 µM [activator, single point]"
CC[C@H]1C2=C3C(CC[C@H]4C(OC)OC[C@](C)([C@@H]34)N(C(=O)OC(C)(C)C)C2)C(CO)C1CO (stereo not given in full),inconclusive: 82.3%,
Cn1c(=O)c2[nH]cnc2n(C)c1=O,inconclusive: 73.3% [at 26 µM],
CCc1noc(C)c1C(=O)N1CCOCC1,inconclusive: 24.1%,
O=c1[nH]cnc2cc(Cl)ccc12,inconclusive: 42.5%,
COc1ccc(C(=O)N2CCC3(CCN(C(=O)Nc4cccc(F)c4)CC3)CC2)cc1,inactive: -0.966%,
NS(=O)(=O)c1ccc(N=Nc2ccc[nH]c2=O)cc1,inactive: -3.99% [at 11 µM],
Cc1cccc(CNc2nc(-c3cccc(NS(C)(=O)=O)c3)nc3ccccc23)c1,inactive: -8.79%,

SMILES,"activity change, negative = inhibition",Potency
Cc1cc(OCCCCCNCCO)cc(C)c1Cl,inactive: 1.25% [at 11 µM],
COc1ccc(-c2cc3nc(-c4ccccc4)cc(N4CCC5(CC4)OCCO5)n3n2)cc1,,active: 15.8 µM [activator]
COc1ccccc1-c1nc(C#N)c(NCc2ccc(F)cc2)o1,inactive: -20.5%,
N#CC1=C(N)Oc2cc(O)ccc2C1c1cccs1 (stereo not given),inconclusive: 63.2%,
C(=N\n1cnnc1)/c1ccc(OC2CSC2)cc1,inconclusive: 33%,
COc1ccc(CCNC(=O)CSc2nc(N)c(C#N)c(-c3cccs3)c2C#N)cc1OC,inconclusive: 41.5%,
CC(=O)CSc1ncnc2c1oc1ccccc12,inactive: -2.48%,
CCn1c(SCC(=O)N2CCc3ccccc32)nnc1-c1ccncc1,inconclusive: 46.2%,
Cn1c(CCNC(=O)c2ccccc2)nc2ccccc21,inconclusive: 47.8%,
CCOC(=O)c1c(C)oc2cc(Br)c(OC(C)C(=O)OCC)cc12 (stereo not given),,"inconclusive: 39.8 µM [activator, single point]"
CCOCC(=O)Nc1sc2c(c1C(=O)OCC)CCCC2,inconclusive: 85.2%,
CN(C)c1ccc2nc3ccc(=[N+](C)C)cc-3sc2c1,,"inconclusive: 20 µM [inhibitor, partial curve]"
COc1ccc(-c2cc(=O)n(-c3nc4ccccc4[nH]3)[nH]2)cc1,,"inconclusive: 39.8 µM [inhibitor, single point]"
CN(C)c1ncnc2ccc(-c3ccc4c(c3)OCO4)cc12,inactive: -21.1%,
CCOC(=O)Nc1nnc(-c2ccccc2OC)s1,inconclusive: 46.9%,
Cc1ccc(S(=O)(=O)CCc2nnc(NC(=O)c3ccccn3)s2)cc1,,active: 6.31 µM
O=c1c2ccccc2sn1-c1ccc(S(=O)(=O)N2CCCCC2)cc1,inactive: -8.54%,
CCCC(=O)NC(c1ccco1)c1cc(Cl)c2cccnc2c1O (stereo not given),,"inconclusive: 31.6 µM [inhibitor, single point]"
CC(CCC(=O)O)(c1cc(Br)c(O)c(Br)c1)c1cc(Br)c(O)c(Br)c1,inactive: -1.76% [at 11 µM],

# A different layout for part of the listing above:
SMILES	activity change, negative = inhibition	Potency
Nc1nnc(C(=O)c2ccccc2N)s1	inconclusive: 22.4%	
N#Cc1c(N)n(CCCN2CCOCC2)c2nc3ccccc3nc12	inconclusive: 47.3%	
Cc1ccc(/C(O)=C2/C(=O)C(=O)N(CCCn3ccnc3)C2c2cccnc2)cc1 (stereo not given)		inconclusive: 25.1 µM [inhibitor, partial curve]
CCOc1ccc(C(=O)CCN2CCCCC2)cc1	inconclusive: 72.3%	
